The target of this test is CFP-ARC2-3 (TNKS1) (human). The test can be described thus: FRET or BRET; ratiometric FRET (527 nm/477 nm on excitation at 410 nm): 250 nM CFP-fusion mixed with 500 nM YFP-fusion or YFP; assay buffer pH 7.0; 384-well plates, 4 replicates; both purified.

Results are given in words; binding and its absence hold for the method and conditions named. Binding calls can cover weak binding; strength is not graded here. Where a sequence is shown, tags or fusion partners need not be part of it.

B1: YFP-TBM (peptide)
chain: REAGDGEE
notes: also called TBM (REAGDGEE); YFP-fused TBM; source: E. coli BL21(DE3), purified (IMAC); not shown: mCitrine (YFP), N-terminal, kept
With B1, the binding entry is “binds”.

(Values after paper PMC7378079 (Scientific Reports, 2020).)
